# Measurements as given in PubChem BioAssay AID624297 (National Center for Advancing Translational Sciences (NCATS), 2012).
# About 6,200 (1.8%) of roughly 340,000 compounds were called active. The shares of active, inactive and inconclusive entries below differ from those in the screen. Calls follow the shape of the dose curve; as a rule, active = well fitted activation curve with a large enough effect; inconclusive = small, poorly fitted or top-dose-only effect; inactive = no such curve, though single readings can be large or run the other way. Where the call is inconclusive, the potency comes from a doubtful curve fit.
# Test: A quantitative high throughput screen for small molecules that induce DNA re-replication in SW480 colon adenocarcinoma cells. Also: nearly all actives have a fitted effect of over 55% in size. As to re-replication activation: % of control where 0% means no effect.
# Settings: Hoechst DNA content imaging, 48 h; re-replication activation: at 46.1 µM (top of the series) unless noted
# How it was run: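 SW480 cells exposed to compounds for 48 hr at 37 C, 5% CO2, then Hoechst-stained 40 min. Nuclear DNA content imaged by fluorescence scanning (405 nm excitation, 500-530 nm emission); re-replication scored as increased high-intensity nuclei.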
# Potency is read from the fitted curve at half-maximal effect.
SMILES,re-replication activation,Potency
CC(=O)c1cccc(NCC(=O)N2CCN(S(=O)(=O)c3ccccc3)CC2)c1,inactive: -32.1%,
O=C(O)CSc1c2ccccc2cc2ccccc12,,"inconclusive: 29.1 µM [activator, single point]"
CCN(CC)C(=O)COc1ccc(Br)cc1Cl,,"inconclusive: 6.51 µM [activator, single point]"
Cc1cn(Cc2ccccc2)c(=O)[nH]c1=O,,"inconclusive: 29.1 µM [activator, partial curve, poor fit]"
COc1ccc(N2CCN(C(=O)[C@@H](NC(=O)c3ccccc3Cl)C(C)C)CC2)cc1,,"inconclusive: 5.8 µM [activator, partial curve, poor fit]"
Cc1cccc(Cn2nc(C(C)(C)C)cc2C(=O)N2CCOCC2)c1,inactive: -2.71%,
COc1cc(C)ccc1OCc1cc(C(=O)N2CCN(C)C[C@@H]2c2ccccc2)no1,inactive: 2.22%,
NNC(=O)CN1C(=O)Nc2ccc(Br)cc2C1c1ccccc1 (stereo not drawn),,"inconclusive: 2.59 µM [activator, full curve, poor fit]"
COc1ccccc1C(=O)C1CCCN(C(=O)Nc2ccccc2F)C1 (stereo not drawn),,"inconclusive: 1 µM [activator, full curve, poor fit]"
c1csc(C2=Nn3c(nnc3-c3ccncc3)SC2)c1,,"inconclusive: 23.1 µM [activator, single point]"
CCOc1ccc(C(=O)NCC(=O)NCC(c2ccc(OC)cc2)N2CCCC2)cc1 (stereo not drawn),,"inconclusive: 18.4 µM [activator, partial curve, poor fit]"
C=Cc1cc2c(cc1O)CCC1C2CCC2(C)C(O)CCC12 (stereo not drawn),,"inconclusive: 20.6 µM [activator, single point]"
COc1ccc(/C(O)=C2/C(=O)C(=O)N(CCCN3CCOCC3)C2c2ccc(C(C)C)cc2)cc1 (stereo not drawn),inconclusive: -25% [activator],
CCc1ccc(-c2nc(SCC(=O)c3c(N)n(C)c(=O)n(C)c3=O)n[nH]2)cc1,,"inconclusive: 29.1 µM [activator, single point]"
Cc1c(NS(=O)(=O)c2ccc3c(c2)OCCO3)cccc1-c1nc2cccnc2s1,inactive: 0.117%,
O=[N+]([O-])c1cc(/C=N/N/C(=N/c2ccccn2)c2ccccn2)ccc1O,,"inconclusive: 0.58 µM [activator, full curve, poor fit]"
CC(=O)NC(Cc1ccc(F)cc1)C(=O)NC1CCN(C(=O)NCc2ccccc2)CC1 (stereo not drawn),,"inconclusive: 20.6 µM [activator, single point]"
CCCNc1nc(Cl)nc(NCc2cccnc2)n1,,"inconclusive: 5.17 µM [activator, single point]"
CC(C)(C)NC(=O)CN(Cc1cccs1)C(=O)CNS(=O)(=O)c1ccc(F)cc1,,"inconclusive: 5.17 µM [activator, full curve, poor fit]"
CCOC(=O)C1Nc2ccc(C(=O)O)cc2C2C=CCC12 (stereo not drawn),,"inconclusive: 29.1 µM [activator, single point]"
Cc1cc(N2CCN(C)CC2)nc2ccc(NC(=S)NCCCN3CCN(C)CC3)cc12,inactive: 9.81%,
COC(=O)c1ccc(CN2CCCC(CNC(=O)Cc3ccc(OC)cc3)C2)cc1 (stereo not drawn),inactive: -3.96%,

SMILES,re-replication activation,Potency
COc1ccc(NC(=O)c2oc3ccccc3c2NC(=O)C2CC2)c(OC)c1,,"inconclusive: 13 µM [activator, partial curve, poor fit]"
COc1cc(SC)ccc1C(=O)OCC(=O)NC(=O)NC(C)C,,"inconclusive: 14.1 µM [activator, single point]"
CC(=O)Nc1sc2c(c1-c1nc3ccccc3s1)CCN(C(C)C)C2,,active: 20.6 µM
COc1cccc(-c2nc(CS(=O)(=O)CC(=O)NCCc3cc(OC)ccc3OC)c(C)o2)c1,inactive: -0.13%,
CCn1nnc(-c2ccccc2NS(=O)(=O)c2ccc(C(=O)OC)cc2)n1,,"inconclusive: 29.1 µM [activator, single point]"
O=C(Cn1nnc2ccccc21)OCc1ccccc1,inactive: -2.19%,
Cc1cc(C(=O)CN2C(=O)c3cccc(N)c3C2=O)c(C)n1Cc1cccs1,,"inconclusive: 16.4 µM [activator, partial curve, poor fit]"
COCCN(C(=O)CSCc1ccc(C)cc1)c1c(N)n(CC(C)C)c(=O)[nH]c1=O,inactive: -13.4%,
S=c1[nH]nc(CCc2nc3ccccc3[nH]2)n1-c1cccc(Cl)c1,,"inconclusive: 0.0092 µM [activator, full curve, poor fit]"
Cc1cccc(C)c1OCC(O)CN(Cc1ccccc1O)C1CCCCC1 (stereo not drawn),,"inconclusive: 29.1 µM [activator, single point]"
CC1CN(Cc2cc(=O)oc3cc(O)c(Cl)cc23)CC(C)O1 (stereo not drawn),inactive: 0.522%,
CCOc1ccc(NS(=O)(=O)c2cnc(Cl)c(Cl)c2)cc1,,"inconclusive: 13 µM [activator, partial curve, poor fit]"
NC(=O)CC(NC(=O)c1ccccc1)c1ccc(NC2CCC2)c([N+](=O)[O-])c1 (stereo not drawn),,"inconclusive: 0.58 µM [activator, single point]"
CCCNC(=O)c1cc(-c2ccc3c(c2)OCO3)on1,,"inconclusive: 29.1 µM [activator, single point]"
OC(CNCc1ccco1)Cn1c2ccccc2c2ccccc21 (stereo not drawn),,"inconclusive: 29.1 µM [activator, single point]"
CCN(CC)S(=O)(=O)c1cccc(C(=O)Nc2cc(C)on2)c1,inactive: -15.9%,
CCOC(=O)N1CCN(C(=O)c2ccc(Cn3c(=S)[nH]c4cc(C(=O)OC)ccc4c3=O)cc2)CC1,inactive: -11.8%,
COc1ccc(Cl)cc1NC(=O)CN(C)CC(=O)Nc1cc(OC)c(OC)c(OC)c1,,"inconclusive: 23.1 µM [activator, single point]"
Cc1cccc(C(=O)OCC(=O)c2cccc(Br)c2)c1O,inactive: -2%,
CN(CC(=O)Nc1c(Cl)cccc1Cl)C(=O)C1CSC2(C)CCC(=O)N12 (stereo not drawn),,"inconclusive: 7.31 µM [activator, partial curve, poor fit]"
Cc1cc(C)c2c(N)c(C(=O)N/N=C/c3cccs3)sc2n1,,"inconclusive: 7.31 µM [activator, partial curve, poor fit]"

# Molecules from the list above containing fluorine:
SMILES,re-replication activation,Potency
COc1ccccc1C(=O)C1CCCN(C(=O)Nc2ccccc2F)C1 (stereo not drawn),,"inconclusive: 1 µM [activator, full curve, poor fit]"
CC(=O)NC(Cc1ccc(F)cc1)C(=O)NC1CCN(C(=O)NCc2ccccc2)CC1 (stereo not drawn),,"inconclusive: 20.6 µM [activator, single point]"
CC(C)(C)NC(=O)CN(Cc1cccs1)C(=O)CNS(=O)(=O)c1ccc(F)cc1,,"inconclusive: 5.17 µM [activator, full curve, poor fit]"
